According to publication PMC10163288:
Some of the results follow.

B1: il10ra_site1_normal_mot_HHH_b1_03859_af2_000000004_0001_44_57_H_._HHH_b2_05934_af2_0001_0000200016_0000001_0_af2pred_0001 (protein)
chain: SSSSDDEEEIARSAVRAVEFLLELNDEEKFRLALKDAKATAKTLGDEEVEKKLREIEERLSSSSS
B2: il10ra_site1_sap_17_mot_39ab2cb694c8b9c1dc7e65c0d672c93e_0001_000000036_0001_53_65_H_._HHH_b2_01477_0001_0000600029_0000002_0_0001 (protein)
chain: SSSSDRHREIYELLRELAEAVHENDEELAEELIEEIRRLIEEAGDWAMRFALEVSKEALDSSSSS
B3: il10ra_site1_normal_mot_HHH_b2_02757_000000230_0001_1_19_H_._HHH_b2_02010_af2_0001_0000400010_0000001_0 (protein)
chain: SSSSSDRLEELEEEIEKAIEEGDPELAIQLLWEAIRLAVELGDREVLHHLFELLREVLNSSSSSS
B4: il10ra_site1_normal_mot_HHH_b2_06795_000000133_0001_42_56_H_._HHH_b2_07010_0002_0000200015_0000002_0 (protein)
chain: SSSSNAEEAARFLLEMAKRLLELGDPERARQALRFAEAAAKYAGDEELLREIEELLEELNSSSSS
B5: il10ra_site1_normal_mot_HHH_b1_04100_af2_000000180_0001_1_19_H_._HHH_b1_06500_0001_0000100003_0000001_1_af2pred_0001 (protein)
chain: SSSSSDLAEKAIRILLRAVKELEDPERARLALEDAKFAAENANNPELQEEIERLLEELERSSSSS
B6: il10ra_site1_sap_17_mot_HEEHE_1605_000000211_0001_40_56_H_._9e622f7d73aa0ff91040b48e8c7f7504_0001_1_af2_0001_0000600013_0000002_0_0001 (protein)
chain: SSSSSDANHEALELVLEAMHAMLRGDREEAERLLEEALELAREGNNERLAKQIEILLENASSSSS
B7: il10ra_site1_normal_mot_HHH_b1_05326_000000242_0001_1_20_H_._HHH_b1_03875_0001_0000500011_0000001_0 (protein)
chain: SSSSSSLEEALELAQHAFRALLRGNPEEARELLEEALELAREENNERLVRVIEDALKIASSSSSS
B8: il10ra_site1_sap_24_mot_HHH_b2_04679_000000194_0001_21_38_H_._HHH_b2_08140_0001_0000300042_0000001_0_0001 (protein)
chain: SSSSSVEELEKKVEELIEKVPDPAARWLAEQALKAARLALERGDEELAERALRMAERVLNSSSSS
B9: il10ra_site1_sap_25_mot_HHH_b2_03434_000000017_0001_1_19_H_._HHH_b2_05932_af2_0001_0000100002_0000001_0_0001 (protein)
chain: SSSSDEETQRVFELIREAVELDLDGDPEEAEKVLEEARELAEEAGNELFLRQVEWLLELLRSSSS
B10: il10ra_site1_normal_mot_HHH_b1_00682_000000211_0001_1_20_H_._HHH_b2_01840_0001_0000500065_0000002_0 (protein)
chain: SSSSDVEERVEELLEQARELLEKGNPDEAYKLLREAVELASERNDPELQRLVMKVSRELFSSSSS
B11: il10ra_site1_normal_mot_HHH_b1_02062_000000185_0001_1_20_H_._HHH_b1_08541_0001_0000100004_0000001_0 (protein)
chain: SSSSSEERRRAYELSREISELDSEGDEEEAKKLLEELEKLVEELGSELLKFIVKLLEEQLHSSSS
B12: il10ra_site1_normal_mot_HHH_b1_06994_000000193_0001_40_55_H_._HHH_b1_06132_0001_0000300033_0000001_0 (protein)
chain: SSSSSEEEELLRAVLRLAQQAIEAGNPEAARFLLLSAEILAREVGDEELLEEVERLLEELSSSSS
B13: il10ra_site1_normal_mot_65b8060e20531850bca9f2e11f97d954_0001_af2_000000137_0001_17_31_H_._HHH_b1_06583_0001_0000300016_0000001_0_af2pred_0001 (protein)
chain: SSSSSEERRRALELILRIAKLLLRGDKEEAEELLEELEELAEKLNDPRLRLSLRALESSLKSSSS
B14: il10ra_site1_normal_mot_8756ee2cf497b5429c717dfc0c0bcfd6_0001_000000186_0001_1_13_H_._HHH_b1_07469_0001_0000200008_0000001_0 (protein)
chain: SSSDEIEEIQELIRRAAELLHEGNPEEAEELLRRAEELAREANNDVLLFQVEYLLRLAEEDSSSS
B15: il10ra_site1_sap_19_mot_HHH_b1_08508_000000230_0001_42_56_H_._HHH_b1_06584_0001_0000100001_0000001_0_0001_af2pred_0001 (protein)
chain: SSSSDEEKREVAYLLVRAYAAAAQGDEEAVEELLEEARRVAEEGNDPRLEEVVEIVAKLLLSSSS
B16: il10ra_site1_sap_20_mot_HHH_b1_02062_000000185_0001_1_20_H_._HHH_b1_05367_0001_0000200009_0000001_0_0001 (protein)
chain: SSSSSSDLEELLEELEQLLEEGDRERFAKVALEILRLAFQLSDPEVLRAVWELIRKLASSSSSSS
B17: il10ra_site1_normal_mot_HHH_b2_03568_000000058_0001_1_19_H_._HHH_b1_01244_0001_0000200011_0000001_0 (protein)
chain: SSSSSDEAYKLARRAIEEASEIFKRDPEKAREILEEAREEAEELNNFAVVFALEHLLRALSSSSS
B18: il10ra_site1_sap_13_mot_HHH_b2_05084_af2_000000250_0001_43_57_H_._c839b00de2d74b58ead539899b931618_0001_af2_0001_0000200015_0000001_0_0001_af2pred_0001 (protein)
chain: SSSSSDERRRVLELIRELLELLKEGDEEEAERVFEEAEELAKEANDPSAEKLLRALFEKGSSSSS
B19: il10ra_site1_normal_mot_HHH_b1_06914_000000280_0001_1_18_H_._HHH_b1_02694_0001_0000200011_0000001_0 (protein)
chain: SSSSTEEDHELYRLSREAAELFAEGDPEQAEEVLEEALRLAEEAGNFVALFALRLLLRDLRSSSS
B20: il10ra_site1_normal_mot_HHH_b1_00999_000000080_0001_41_55_H_._HHH_b2_02400_0001_0000200004_0000001_1 (protein)
chain: SSSSSDEEEEEVEELLEEAKQIPDPRELNRVLLEALRVAFEGQDPELLRLVWEVVKKLGSSSSSS
B21: il10ra_site1_sap_21_mot_HHH_b1_04828_000000265_0001_23_38_H_._HHH_b1_04671_0001_0000100004_0000001_0_0001 (protein)
chain: SSSSEEERVEELLEEAKELIEEGDPEKASKVLLEATHLAIQSQDPELLRLVWEVVKEVAEHSSSS
B22: il10ra_site1_normal_mot_HHH_b2_08186_000000021_0001_43_56_H_._HHH_b2_00645_0001_0000300025_0000002_0 (protein)
chain: SSSSSSDTREEVEELLEEAEEIDDPEERFRLLLRALRLAFEAGDQEALQLVWEVLKEISSSSSSS
B23: il10ra_site1_sap_22_mot_HHH_b2_03220_af2_000000223_0001_23_40_H_._HHH_b1_01542_0001_0000500044_0000001_0_0001_af2pred_0001 (protein)
chain: SSSSSEEEVEELERRIEELLEEGNRHEAAALILRLFALAHELRDPEVEEEARRLAQLAANSSSSS
B24: il10ra_site1_sap_21_mot_HHH_b2_07442_000000239_0001_40_54_H_._HHH_b2_00236_af2_0001_0000500036_0000001_0_0001 (protein)
chain: SSSSDEEERQLKELLEELKELVEEGDRERFAKVVLELLRLAFQLRDEEALQLLWELMEELASSSS
B25: il10ra_site1_normal_mot_HHH_b2_00984_000000042_0001_1_20_H_._HHH_b1_06168_af2_0001_0000500031_0000001_0_af2pred_0001 (protein)
chain: SSSSDEEEKEIEELIEEVERLLKEGDPEEASRLVIEALQLAAEIQNPELLERLARLSREILSSSS
B26: il10ra_site1_normal_mot_HHH_b1_06994_000000193_0001_40_55_H_._HHH_b1_07129_0001_0000100013_0000001_0 (protein)
chain: SSSSDQEEELLRAALRLIEQIFEAGDPRAARILLEAAQRIAEQLGNEELLKKLEELEEEISSSSS
B27: il10ra_site1_normal_mot_HHH_b1_00999_000000080_0001_41_55_H_._HHH_b2_03012_0001_0000300027_0000002_0 (protein)
chain: SSSSSSSEEEVEELLEEAQKIDDPRERNRALVRALQIAIQSQDPELLQEVWRVIKELGSSSSSSS
B28: il10ra_site1_normal_mot_HHH_b2_00943_af2_000000149_0001_1_17_H_._d3c612d18aab0e0945b39b51a1e20ad4_0001_1_af2_0001_0000500040_0000001_0_af2pred_0001 (protein)
chain: SAEEVLQRQVERDPDDASALHLLLLVLAAKEGDPELVQLLRRANELSREGNPEEAREILQEAIER
B29: il10ra_site1_normal_mot_HHH_b2_00441_000000147_0001_1_18_H_._HHH_b1_04947_af2_0001_0000200007_0000001_0_af2pred_0001 (protein)
chain: SSSSDEYLKKAIRALFRAIKRAIELGDEEVVRLALKDLRFLAREHNDEEAEELLKELEELLSSSS
B30: il10ra_site1_sap_27_mot_39a7b8d0c4c3fc04bafbda6ce6101d3a_0001_1_af2_000000014_0001_34_48_H_._HHH_b1_08490_0001_0000300019_0000001_0_0001 (protein)
chain: SSSSTESQEVYEILREIVELIHEGDDEEAEELIRELKKLIEELGNRVMLMVLRYLEEHLNSSSSS
B31: il10ra_site1_sap_10_mot_HHH_b2_02315_000000136_0001_19_35_H_._7c653bbcfd290f4ebb70a7ee4eba5725_0001_0001_0000600021_0000001_0_0001_af2pred_0001 (protein)
chain: SSSSSAEEAVRLLLRAAKLAVELNDPERVKRALHLAERAARAENDEEAERLVEEVREEIEKSSSS
B32: il10ra_site1_normal_mot_HHH_b2_04912_000000028_0001_1_20_H_._HHH_b1_01163_af2_0001_0000300022_0000001_0 (protein)
chain: SSSSSDLNERALRLSREAFRLALRGNPEEARELLEEALELAEEANNERLFRQIEELLETQSSSSS
B33: il10ra_site1_normal_mot_HHH_b2_07145_000000168_0001_24_40_H_._HHH_b1_05095_af2_0001_0000200027_0000002_1 (protein)
chain: SSSSQEEFEELKKLIEEAIEALRNGNPEEAREILEQALELAEEANNTSARFAIRRVLELISSSSS
B34: il10ra_site1_sap_21_mot_HHH_b2_02053_af2_000000006_0001_3_19_H_._HHH_b1_02045_0001_0000100002_0000001_0_0001_af2pred_0001 (protein)
chain: SSSSSDTVEVALKAAERLLEEGNPEAAERAVRRAKEVAEQLGDEELQEEVERLLEEIERRSSSSS
B35: il10ra_site1_normal_mot_6805e7cfcec1a9f49da1e1cd80eb4878_0001_af2_000000116_0001_1_14_H_._b175c77b65581325a115f305b9dd1fb0_0001_1_0001_0000200004_0000001_1_af2p … (protein)
chain: SLEDVLTAALQEAFDIPREVAQAALDQLRAQAKTDEELAQAVAAALELAGRPELAARAREALRRS
B36: il10ra_site1_normal_mot_05ca327611f5605f0dd8494b449afcbf_0001_1_000000248_0001_35_51_H_._HHH_b2_06634_0001_0000200008_0000001_1 (protein)
chain: SSSSSEESQIVQELLRKAIELIRKGNPEEAEELLEEAERVAEEGNNPVLEFAIRAVEKALNSSSS
B37: il10ra_site1_normal_mot_HHH_b2_08186_000000021_0001_43_56_H_._HHH_b2_03908_0001_0000100004_0000001_0 (protein)
chain: SSSSDVEERVKELIEQIEELLEEGNEEEARELLLEALQLAYEGQNPELLRELWELLQRLASSSSS

molecular target: il10ra, Q13651; assay: yeast display titration

Apparent Kd, inactive:
B1 no binding seen
B2 no binding seen
B3 no binding seen
B4 no binding seen
B5 no binding seen
B6 no binding seen
B7 no binding seen
B8 no binding seen
B9 no binding seen
B10 no binding seen
B11 no binding seen
B12 no binding seen
B13 no binding seen
B14 no binding seen
B15 no binding seen
B16 no binding seen
B17 no binding seen
B18 no binding seen
B19 no binding seen
B20 no binding seen
B21 no binding seen
B22 no binding seen
B23 no binding seen
B24 > 1.21 µM
B25 no binding seen
B26 no binding seen
B27 no binding seen
B28 no binding seen
B29 no binding seen
B30 no binding seen
B31 no binding seen
B32 no binding seen
B33 no binding seen
B34 no binding seen
B35 no binding seen
B36 no binding seen
B37 no binding seen

As a working copy, some entries already given:
Apparent Kd, inactive:
B33 no binding seen
B34 no binding seen
